Results taken from publication PMC8910673.
Results are given in words; binding and its absence hold for the method and conditions named. In cells and extracts the contact can be indirect. Some entries that bind do so weakly or less than the wild type. Tags and fused reporters may be left off the sequences shown.

Assays:
[1] = biological target: T1, MOB1A-NLuc (Arabidopsis thaliana) (UniProt Q9FHI1); assay: split reporter; firefly luciferase complementation imaging (LCI) in N. benthamiana leaves, 2-4 days after infiltration; 1 mM D-luciferin, CCD imaging
T1 sequence: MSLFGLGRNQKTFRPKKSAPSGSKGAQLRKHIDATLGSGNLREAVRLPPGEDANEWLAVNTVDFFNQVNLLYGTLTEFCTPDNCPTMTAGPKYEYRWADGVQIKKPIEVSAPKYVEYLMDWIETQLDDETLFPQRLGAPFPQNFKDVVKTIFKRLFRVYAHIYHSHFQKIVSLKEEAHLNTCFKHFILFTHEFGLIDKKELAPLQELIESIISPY

[2] = biological target: T2, MOB1B-NLuc (Arabidopsis thaliana) (UniProt Q8GYX0); assay: as above
T2 sequence: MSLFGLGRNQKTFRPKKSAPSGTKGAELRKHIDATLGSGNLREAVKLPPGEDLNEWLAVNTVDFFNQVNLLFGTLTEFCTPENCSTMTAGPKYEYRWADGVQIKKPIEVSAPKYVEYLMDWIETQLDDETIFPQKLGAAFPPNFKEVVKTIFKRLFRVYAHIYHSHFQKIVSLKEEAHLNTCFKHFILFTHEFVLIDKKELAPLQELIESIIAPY

B1: CLuc-MAP3Kε1 (protein, UniProt Q9LJD8 1-1368)
chain: MARQMTSSQFHKSKTLDNKYMLGDEIGKGAYGRVYKGLDLENGDFVAIKQVSLENIVQEDLNTIMQEIDLLKNLNHKNIVKYLGSSKTKTHLHIILEYVENGSLANIIKPNKFGPFPESLVAVYIAQVLEGLVYLHEQGVIHRDIKGANILTTKEGLVKLADFGVATKLNEADVNTHSVVGTPYWMAPEVIEMSGVCAASDIWSVGCTVIELLTCVPPYYDLQPMPALFRIVQDDNPPIPDSLSPDITDFLRQCFKKDSRQRPDAKTLLSHPWIRNSRRALQSSLRHSGTIKYMKEATASSEKDDEGSQDAAESLSGENVGISKTDSKSKLPLVGVSSFRSEKDQSTPSDLGEEGTDNSEDDIMSDQVPTLSIHEKSSDAKGTPQDVSDFHGKSERGETPENLVTETSEARKNTSAIKHVGKELSIPVDQTSHSFGRKGEERGIRKAVKTPSSVSGNELARFSDPPGDASLHDLFHPLDKVSEGKPNEASTSMPTSNVNQGDSPVADGGKNDLATKLRATIAQKQMEGETGHSNDGGDLFRLMMGVLKDDVIDIDGLVFDEKVPAENLFPLQAVEFSRLVSSLRPDESEDAIVSSCQKLVAMFRQRPEQKVVFVTQHGFLPLMDLLDIPKSRVICAVLQLINEIIKDNTDFQENACLVGLIPVVMSFAGPERDRSREIRKEAAYFLQQLCQSSPLTLQMFIACRGIPVLVGFLEADYAKYREMVHLAIDGMWQVFKLKRSTPRNDFCRIAAKNGILLRLINTLYSLNEATRLASISGGLDGQAPRVRSGQLDPNNPIFGQNETSSLSMIDQPDVLKTRHGGGEEPSHASTSNSQRSDVHQPDALHPDGDKPRVSSVAPDASTSGTEDVRQQHRISLSANRTSTDKLQKLAEGASNGFPVTQTEQVRPLLSLLDKEPPSRHYSGQLDYVKHITGIERHESRLPLLHGSNEKKNNGDLDFLMAEFAEVSGRGKENGSLDTTTRYPSKTMTKKVLAIEGVASTSGIASQTASGVLSGSGVLNARPGSATSSGLLAHMVSTLSADVAREYLEKVADLLLEFARADTTVKSYMCSQSLLSRLFQMFNRVEPPILLKILECTNHLSTDPNCLENLQRADAIKHLIPNLELKDGHLVYQIHHEVLSALFNLCKINKRRQEQAAENGIIPHLMLFIMSDSPLKQYALPLLCDMAHASRNSREQLRAHGGLDVYLSLLDDEYWSVIALDSIAVCLAQDNDNRKVEQALLKQDAIQKLVDFFQSCPERHFVHILEPFLKIITKSYRINKTLAVNGLTPLLISRLDHQDAIARLNLLKLIKAVYEHHPRPKQLIVENDLPQKLQNLIEERRDGQRSGGQVLVKQMATSLLKALHINTIL
binding [1]: binds | binding [2]: binds
